In PMC12508586:
Results are given in words; binding and its absence hold for the method and conditions named. In cells and extracts the contact can be indirect. Some binding calls cover weakened binding; strength is not graded here.

Protein sequences, listed by entry. Tags and fused reporters are not part of them.
UniProt Q15370: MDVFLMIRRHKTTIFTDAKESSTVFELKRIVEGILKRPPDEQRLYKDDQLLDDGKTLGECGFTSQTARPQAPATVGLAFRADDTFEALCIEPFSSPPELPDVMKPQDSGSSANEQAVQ
UniProt P46934: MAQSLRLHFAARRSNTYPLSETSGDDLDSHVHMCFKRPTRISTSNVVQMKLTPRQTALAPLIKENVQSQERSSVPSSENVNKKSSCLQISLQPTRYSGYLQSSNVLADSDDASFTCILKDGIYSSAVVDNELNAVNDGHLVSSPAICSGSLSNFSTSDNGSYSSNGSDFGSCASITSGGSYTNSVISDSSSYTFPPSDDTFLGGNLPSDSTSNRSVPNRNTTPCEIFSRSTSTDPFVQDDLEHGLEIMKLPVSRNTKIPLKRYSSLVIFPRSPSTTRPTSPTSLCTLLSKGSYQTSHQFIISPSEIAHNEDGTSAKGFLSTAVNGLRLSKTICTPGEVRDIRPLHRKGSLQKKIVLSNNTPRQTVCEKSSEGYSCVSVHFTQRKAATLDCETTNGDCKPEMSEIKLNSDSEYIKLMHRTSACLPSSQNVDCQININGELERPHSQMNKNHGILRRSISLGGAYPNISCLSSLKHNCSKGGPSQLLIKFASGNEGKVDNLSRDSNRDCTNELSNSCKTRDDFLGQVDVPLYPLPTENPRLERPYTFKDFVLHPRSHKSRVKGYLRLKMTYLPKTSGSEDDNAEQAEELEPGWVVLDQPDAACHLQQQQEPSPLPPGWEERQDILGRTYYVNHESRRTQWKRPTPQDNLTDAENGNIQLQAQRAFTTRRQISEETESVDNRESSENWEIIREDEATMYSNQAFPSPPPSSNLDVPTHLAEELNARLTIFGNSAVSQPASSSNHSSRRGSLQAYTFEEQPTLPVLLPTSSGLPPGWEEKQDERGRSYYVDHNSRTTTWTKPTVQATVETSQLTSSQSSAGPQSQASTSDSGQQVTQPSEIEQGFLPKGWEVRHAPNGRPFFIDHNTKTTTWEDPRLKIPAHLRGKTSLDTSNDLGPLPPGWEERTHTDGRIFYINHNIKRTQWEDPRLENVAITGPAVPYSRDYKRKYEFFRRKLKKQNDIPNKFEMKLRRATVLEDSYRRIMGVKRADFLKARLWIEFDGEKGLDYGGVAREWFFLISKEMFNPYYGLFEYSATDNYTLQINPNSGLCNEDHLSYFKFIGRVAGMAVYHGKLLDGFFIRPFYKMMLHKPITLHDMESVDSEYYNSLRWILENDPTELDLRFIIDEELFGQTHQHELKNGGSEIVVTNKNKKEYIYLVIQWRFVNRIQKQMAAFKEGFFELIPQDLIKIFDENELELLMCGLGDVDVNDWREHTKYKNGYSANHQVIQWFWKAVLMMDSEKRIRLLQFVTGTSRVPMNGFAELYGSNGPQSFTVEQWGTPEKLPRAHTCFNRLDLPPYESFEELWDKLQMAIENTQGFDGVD

Columns and labels:
[1] = target: T1, Slit guidance ligand 2 (Slit2) (human (endogenous in MDA-MB-231 and BT-549)) (UniProt O94813); assay: co-IP; MDA-MB-231 and BT-549 cell lysates incubated 4 h with Sepharose CL-4B bead-conjugated IgG, TCEB2, Slit2 or NEDD4 antibody; bound proteins eluted and assessed by western blot
T1 sequence: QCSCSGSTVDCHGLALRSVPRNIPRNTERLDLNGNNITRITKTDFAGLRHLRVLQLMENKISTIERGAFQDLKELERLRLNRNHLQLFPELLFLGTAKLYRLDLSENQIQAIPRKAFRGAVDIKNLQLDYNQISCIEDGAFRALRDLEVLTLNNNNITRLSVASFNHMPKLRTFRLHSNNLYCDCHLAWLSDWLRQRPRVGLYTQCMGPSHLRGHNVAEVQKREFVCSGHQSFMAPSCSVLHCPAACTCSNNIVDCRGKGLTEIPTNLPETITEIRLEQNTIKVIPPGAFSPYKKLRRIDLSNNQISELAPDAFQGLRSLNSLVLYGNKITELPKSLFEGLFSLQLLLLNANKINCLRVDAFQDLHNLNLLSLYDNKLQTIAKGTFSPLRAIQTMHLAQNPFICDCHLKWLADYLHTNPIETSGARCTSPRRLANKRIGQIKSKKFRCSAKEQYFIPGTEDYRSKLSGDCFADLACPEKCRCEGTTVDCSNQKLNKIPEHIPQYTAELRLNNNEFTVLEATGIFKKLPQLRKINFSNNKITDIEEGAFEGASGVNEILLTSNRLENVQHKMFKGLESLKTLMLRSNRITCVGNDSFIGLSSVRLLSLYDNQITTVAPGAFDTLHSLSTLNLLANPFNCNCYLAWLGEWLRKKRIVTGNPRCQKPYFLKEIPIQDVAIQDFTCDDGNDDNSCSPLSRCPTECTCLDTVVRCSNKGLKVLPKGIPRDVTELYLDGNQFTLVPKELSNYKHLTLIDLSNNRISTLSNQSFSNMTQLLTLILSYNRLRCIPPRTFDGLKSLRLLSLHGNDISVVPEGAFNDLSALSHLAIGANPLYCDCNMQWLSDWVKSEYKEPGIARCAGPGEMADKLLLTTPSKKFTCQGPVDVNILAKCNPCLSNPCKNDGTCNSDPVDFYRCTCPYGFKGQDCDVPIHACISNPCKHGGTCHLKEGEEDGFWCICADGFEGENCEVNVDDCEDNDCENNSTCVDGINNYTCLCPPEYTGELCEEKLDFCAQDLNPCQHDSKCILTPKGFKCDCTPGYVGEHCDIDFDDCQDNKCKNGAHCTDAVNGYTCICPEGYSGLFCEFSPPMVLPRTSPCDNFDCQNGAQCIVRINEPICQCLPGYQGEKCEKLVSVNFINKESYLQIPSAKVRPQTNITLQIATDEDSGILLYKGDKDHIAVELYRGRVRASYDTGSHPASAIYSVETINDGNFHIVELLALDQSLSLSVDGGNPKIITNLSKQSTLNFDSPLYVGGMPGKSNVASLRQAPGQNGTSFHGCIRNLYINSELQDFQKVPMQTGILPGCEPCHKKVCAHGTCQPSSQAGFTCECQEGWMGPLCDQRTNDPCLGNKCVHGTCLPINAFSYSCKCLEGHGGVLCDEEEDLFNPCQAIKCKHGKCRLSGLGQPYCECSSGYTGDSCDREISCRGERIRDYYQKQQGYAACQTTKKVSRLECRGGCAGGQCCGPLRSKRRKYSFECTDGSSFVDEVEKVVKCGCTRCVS

[2] = target: Transcription elongation factor B polypeptide 2 (TCEB2) (human (endogenous in MDA-MB-231 and BT-549)) (UniProt Q15370); assay: as above

binding [1]	binding [2]	Substance
binds		Transcription elongation factor B polypeptide 2 (TCEB2) (from UniProt Q15370 1-118)
binds	binds	neural precursor cell-expressed developmentally downregulated gene 4 (NEDD4) (from UniProt P46934 1-1319) (enzyme)
